# Source: patent US4950651A, “Nitroso-N-(β-chloro ethyl)-carbamoyl peptides” (priority 1981, dated 1990)
# Not every detail of the peptide structures is certain; ends, links or a residue may be inferred. At least one compound was matched to its structure with a doubt left. Where a SMILES comes first, the peptide text is derived from it. The star is where a group is joined. Carbamoyl(2-ClEt,NO) = O=NN(CCCl)C(=O)*
# System: L1210 leukemia
# Experiment: Relation between effect and chemical structure in mice suffering from L1210 leukemia (Table III)
# Format: in vivo
# From the text: Examination of the relation between the
# effect and the chemical structure with compounds
# similar to compound of formula X in mice suffering
structure (smiles),measurement,setting,value
"CC(C)C[C@H](NC(=O)[C@H](Cc1c[nH]c2ccccc12)NC(=O)N(CCCl)N=O)C(=O)N[C@@H](CC(=O)O)C(=O)N[C@@H](Cc1ccccc1)C(N)=O [XI, N-Nitroso-N-(β-chloro-ethyl)-carbamoyl-tryptophyl-leucyl-α-asparagyl-phenylalanine-amide] ({Carbamoyl(2-ClEt,NO)}-WLDF-NH2)",ILS %,7 mg/kg,0%
same,ILS %,28 mg/kg,10%
same,ILS %,46 mg/kg,50%
same,ILS %,100 mg/kg,toxic
